Results are given in words; binding and its absence hold for the method and conditions named. Binding calls can cover weak binding; strength is not graded here.

Amino acid sequences for entries named in this document (tags omitted). Residues count along the entry.
UniProt P41916, residues 36-221: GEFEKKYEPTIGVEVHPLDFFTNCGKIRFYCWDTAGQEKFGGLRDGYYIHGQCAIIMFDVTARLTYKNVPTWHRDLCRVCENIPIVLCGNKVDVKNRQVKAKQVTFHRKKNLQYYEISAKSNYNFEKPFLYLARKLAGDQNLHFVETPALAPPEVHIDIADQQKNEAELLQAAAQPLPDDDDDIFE

Experimental findings from paper PMC8158957 are described below.

The test concerns the target full-length tomato DEM1, yeast two-hybrid bait (tomato) (UniProt O04394). The test can be described thus: two-hybrid; pairwise test of the longest RAN1 prey against DEM baits; growth on quadruple dropout media (QDO), -W-L to select bait and prey vectors.

As to “Arabidopsis RAS-RELATED NUCLEAR PROTEIN 1 (RAN1), longest two-hybrid prey clone (C-terminal 186 amino acids) (from UniProt P41916 36-221) (domain or fragment)”, the binding entry was “binds”.
